# PubChem BioAssay AID1671190 (National Center for Advancing Translational Sciences (NCATS), 2021)
# Sequences of proteins named here, by UniProt entry; tags and fusion partners are left off. A change or cut given only in a name is not applied to a line headed by its entry.
# UniProt P18054: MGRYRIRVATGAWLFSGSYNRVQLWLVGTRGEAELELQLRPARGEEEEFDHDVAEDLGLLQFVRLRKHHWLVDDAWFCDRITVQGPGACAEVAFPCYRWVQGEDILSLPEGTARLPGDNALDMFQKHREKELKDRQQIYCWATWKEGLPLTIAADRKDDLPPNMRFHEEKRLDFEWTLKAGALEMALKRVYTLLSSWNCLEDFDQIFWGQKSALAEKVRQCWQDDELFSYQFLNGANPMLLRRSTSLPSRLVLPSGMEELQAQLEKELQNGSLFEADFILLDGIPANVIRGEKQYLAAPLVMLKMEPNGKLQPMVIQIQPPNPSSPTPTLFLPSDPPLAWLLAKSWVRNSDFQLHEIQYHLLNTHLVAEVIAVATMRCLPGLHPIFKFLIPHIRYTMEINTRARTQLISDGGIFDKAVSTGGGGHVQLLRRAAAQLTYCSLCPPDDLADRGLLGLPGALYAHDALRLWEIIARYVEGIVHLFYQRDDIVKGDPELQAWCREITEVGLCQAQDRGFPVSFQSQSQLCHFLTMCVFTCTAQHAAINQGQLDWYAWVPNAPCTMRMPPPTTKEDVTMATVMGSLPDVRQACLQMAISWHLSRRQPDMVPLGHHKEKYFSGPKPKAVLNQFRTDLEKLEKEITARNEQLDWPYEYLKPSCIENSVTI
# Screen size: about 580,000 compounds; about 6,100 (1.1%) were called active. This list was built around the results that the source calls inconclusive (neither active nor inactive); the mix of calls is not that of the screen. Calls come from the whole dose curve; as a rule, active = well fitted inhibition curve with a large enough effect; inconclusive = small, poorly fitted or top-dose-only effect, or another doubt; inactive = no such curve, though single readings can be large or run the other way. A potency beside an inconclusive call is a rough fit, not a confirmed value.
# Molecular target: Polyunsaturated fatty acid lipoxygenase ALOX12 (Homo sapiens) (UniProt P18054)
# Experiment: Primary qHTS assay for inhibitors of human arachidonate 12S-lipoxygenase (ALOX12): Round 2
# Details: purified 12hLO, xylenol orange hydroperoxide absorbance; activity change, negative = inhibition: at 108 µM (top of the series) unless noted
# How it was run: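 Purified human 12hLO (150 nM final) in 25 mM Hepes, 0.01% Triton X-100, pH 7.0 was preincubated 15 min at room temperature with compound. Then 40 uM arachidonic acid was added, 30 min. Hydroperoxide was read by Fe-XO absorbance ratio 573/405 nm.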
# % is set by controls: 0 for no effect and ±100 for the full control effect; potency is the fitted concentration of half-maximal effect.
Structure (SMILES),Potency,"activity change, negative = inhibition"
COC(=O)c1ccc(-c2nc(O)c3cnccn23)cc1,"inconclusive: 35.5 µM [inhibitor, partial curve, poor fit]",
COc1ccc(C(=O)/C=C/C(=O)N(CC(=O)NCCC(C)C)Cc2cccs2)c(O)c1,"inconclusive: 20 µM [inhibitor, partial curve]",
COc1ccc(NC(=O)C23CC4CC(C2)CC(c2ccccc2)(C4)C3)c(OC)c1,inactive,
CCN(CC)CCOc1ccccc1C(C)=O,"inconclusive: 1 µM [inhibitor, full curve, poor fit]",
CC(C)n1nc(C(=O)Nc2cccc(S(=O)(=O)N3CCCCCC3)c2)c2ccccc2c1=O,inactive,
CCOC(=O)c1c(C)[nH]c(C(=O)C(C)OC(=O)c2cccc(O)c2)c1C (stereo not drawn),"inconclusive: 39.8 µM [inhibitor, full curve, poor fit]",
Brc1ccc(-c2nn3c(-c4ccccn4)nnc3s2)cc1,"inconclusive: 50.1 µM [inhibitor, partial curve, poor fit]",
Cc1ccc(CC(=O)N2CCC(NS(=O)(=O)c3ccc(C)cc3)CC2)cc1,,inconclusive: -31.3% [inhibitor]
Cc1ccc(C(=O)c2sc(Nc3ccccc3)c(S(=O)(=O)c3ccccc3)c2N)c(C)c1,"inconclusive: 126 µM [inhibitor, partial curve, poor fit]",
CCc1ccc(N2Cc3ccccc3C2)cc1,inactive,
O=C(Nc1ccccc1)c1c2c(nc3ccccc13)CCCC2,inactive,
CC(=O)c1cccc(NC(=S)NC(=O)c2ccccc2)c1,"inconclusive: 44.7 µM [inhibitor, partial curve]",
CC(C)Oc1ccc(/C=N/NC(=O)c2ccc(N(Cc3ccccc3)S(C)(=O)=O)cc2)cc1,inactive,
Cc1ccc(-c2c(C(=O)Nc3ccccc3C)c(C)[nH]c(=S)c2C#N)o1,"inconclusive: 89.1 µM [inhibitor, partial curve, poor fit]",
CCOc1ccc(-c2nc(S(=O)(=O)c3ccccc3)c(NCc3cccnc3)o2)cc1,"inconclusive: 7.94 µM [inhibitor, partial curve, poor fit]",
Cc1cc(=O)oc2cc(OCC(=O)OCC(=O)Nc3ccc4ccccc4c3)ccc12,"inconclusive: 50.1 µM [inhibitor, partial curve, poor fit]",
Cc1ccc(-c2ccc(CCC(=O)O)n2-c2ccc(O)cc2)cc1,"inconclusive: 50.1 µM [inhibitor, partial curve, poor fit]",
COc1ccc(-c2nc(CCl)cs2)cc1,"inconclusive: 44.7 µM [inhibitor, partial curve, poor fit]",
COc1ccccc1N1CCN(C(=O)c2cc(C)on2)CC1,"inconclusive: 126 µM [inhibitor, partial curve, poor fit]",
CCCCNc1cccc2c1S(=O)(=O)N[C@@H](Cc1ccccc1)CO2,"inconclusive: 89.1 µM [inhibitor, single point]",
CC(=O)OCC=C(C)C,inactive,
Cc1cc(C(F)(F)F)c(C#N)c(SCc2cccnc2)n1,inactive,

# 3 entries from above, with tabs.
Structure (SMILES)	Potency	activity change, negative = inhibition
COc1ccc(NC(=O)C23CC4CC(C2)CC(c2ccccc2)(C4)C3)c(OC)c1	inactive	
CC(C)n1nc(C(=O)Nc2cccc(S(=O)(=O)N3CCCCCC3)c2)c2ccccc2c1=O	inactive	
Brc1ccc(-c2nn3c(-c4ccccn4)nnc3s2)cc1	inconclusive: 50.1 µM [inhibitor, partial curve, poor fit]	

# Remaining list, next part.

Structure (SMILES),Potency,"activity change, negative = inhibition"
CCCCNC(=O)CC1Nc2ccccc2NC1=O (stereo not drawn),"inconclusive: 39.8 µM [inhibitor, partial curve, poor fit]",
Cc1ccc(C)c(-c2csc(NC(=O)C3=COCCO3)n2)c1,inactive,
CC1(C(=O)NNC(=O)c2ccc(=O)oc2)CC1Br (stereo not drawn),"inconclusive: 17.8 µM [inhibitor, single point]",
COCCNC(=O)C1CCN(Cc2cc3ccccc3n2Cc2ccc(C)cc2)CC1,"inconclusive: 56.2 µM [inhibitor, partial curve, poor fit]",
CCOC(=O)C(N/C=C(/C#N)c1cccc(F)c1)C(=O)OCC,"inconclusive: 22.4 µM [inhibitor, full curve, poor fit]",
C/C(=N\Nc1ccc(Cl)c(C(=O)O)c1)c1ccc(N2CCOCC2)cc1,"inconclusive: 44.7 µM [inhibitor, partial curve, poor fit]",
CCN1CCN(CCOc2cccc(Oc3ccccc3)c2)CC1,"inconclusive: 2.51 µM [inhibitor, partial curve, poor fit]",
COC(=O)/C(C(C)=O)=C(/C=C/C=C/N(C)C)N(C)C,"inconclusive: 28.2 µM [inhibitor, partial curve, poor fit]",
CC(C)NC(=O)C1(C)CCCN1C/C=C/c1ccccc1 (stereo not drawn),"inconclusive: 31.6 µM [inhibitor, partial curve, poor fit]",
O=C(NC1CC1)C(Sc1ccccn1)c1ccccc1 (stereo not drawn),"inconclusive: 56.2 µM [inhibitor, partial curve, poor fit]",
O=C1NC(Cc2ccccc2)c2nc3ccc(Cl)cc3c(=O)n2-c2cc3ccccc3cc21 (stereo not drawn),"inconclusive: 28.2 µM [inhibitor, single point]",
Cc1oc(-c2ccccc2F)nc1CS(=O)CC(=O)NC1CCCC1 (stereo not drawn),inactive,
CC(C)C(=O)NCCNC(=O)NC(CN(C)C)c1ccccc1 (stereo not drawn),inactive,
CCN1CCN(c2nc3ccccc3nc2C(C#N)S(=O)(=O)c2cccc(C)c2)CC1 (stereo not drawn),active: 14.1 µM,
Cc1cccc(Cl)c1CNC(=O)c1c(C)noc1-c1ccccc1Cl,"inconclusive: 1 µM [inhibitor, full curve]",
CC(C)OC(=O)CC(=O)CSc1nc2c(cc1C#N)CCCCC2,inactive,
O=C1NC[C@@H](CCCCN2C[C@H](Cc3ccc(O)cc3)N(CCC3CCCCC3)C(=O)C2=O)N(CC2CCCCC2)C1=O,"inconclusive: 44.7 µM [inhibitor, partial curve, poor fit]",
CC(=O)c1c(C)[nH]c(C(=O)CSc2nnc(NC3CC3)s2)c1C,"inconclusive: 0.316 µM [inhibitor, full curve, poor fit]",
CN(C)S(=O)(=O)c1cccc(NC(=O)CSc2nc3ccccc3[nH]2)c1,inactive,
O=C(c1cc2ccccc2oc1=O)N(Cc1ccc(C(F)(F)F)cc1)C1CC1,"inconclusive: 50.1 µM [inhibitor, single point]",
CCN=C1S/C(=C\c2cc(Br)c(O)c(OC)c2)C(=O)N1CC,"inconclusive: 89.1 µM [inhibitor, partial curve, poor fit]",
